Experimental data: publication PMC2584955
No constants are given. Whether binding was seen depends on the method and setting. In cells and extracts the contact can be indirect. Some results given as binding are weak or reduced against the parent protein; the word gives no strength.

The chains behind the UniProt entries cited, without tags or fusion partners.
UniProt P05556: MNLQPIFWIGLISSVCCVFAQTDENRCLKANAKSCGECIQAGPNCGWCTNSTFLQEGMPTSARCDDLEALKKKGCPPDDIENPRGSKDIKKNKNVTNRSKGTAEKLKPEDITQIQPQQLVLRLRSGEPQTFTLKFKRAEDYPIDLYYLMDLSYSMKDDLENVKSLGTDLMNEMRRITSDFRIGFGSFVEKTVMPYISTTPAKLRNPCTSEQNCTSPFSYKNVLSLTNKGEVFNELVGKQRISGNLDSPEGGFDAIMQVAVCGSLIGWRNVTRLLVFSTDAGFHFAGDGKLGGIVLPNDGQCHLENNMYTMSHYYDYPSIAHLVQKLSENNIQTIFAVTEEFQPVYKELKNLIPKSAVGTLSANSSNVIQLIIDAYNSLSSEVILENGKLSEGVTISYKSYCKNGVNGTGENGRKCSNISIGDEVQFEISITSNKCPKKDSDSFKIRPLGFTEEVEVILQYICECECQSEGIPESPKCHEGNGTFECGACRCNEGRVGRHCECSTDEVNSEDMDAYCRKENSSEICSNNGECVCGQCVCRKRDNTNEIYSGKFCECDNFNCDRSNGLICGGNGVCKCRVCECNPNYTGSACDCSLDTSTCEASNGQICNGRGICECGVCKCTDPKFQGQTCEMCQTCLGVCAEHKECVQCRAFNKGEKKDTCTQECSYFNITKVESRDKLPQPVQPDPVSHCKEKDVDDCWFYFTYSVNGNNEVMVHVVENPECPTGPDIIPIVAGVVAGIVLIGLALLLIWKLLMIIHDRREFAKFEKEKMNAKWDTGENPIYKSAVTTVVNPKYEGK
UniProt Q03135: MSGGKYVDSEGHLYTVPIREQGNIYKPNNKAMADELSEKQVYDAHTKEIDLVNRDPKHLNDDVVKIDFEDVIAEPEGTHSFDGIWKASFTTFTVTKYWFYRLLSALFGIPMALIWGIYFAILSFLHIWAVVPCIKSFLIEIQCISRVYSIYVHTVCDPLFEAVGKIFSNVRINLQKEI

Key:
[1] = molecular target: integrin β1 (human (endogenous in 686LN and its derivative M4 cells)) (UniProt P05556); assay: co-IP; about 500 μg lysate of CavS cells (pool of CavS-H and CavS-L clones) precleared with protein G-agarose 4 h at 4°C, incubated overnight with 5 μg antibody or non-immunised rabbit or mouse IgG precomplexed with protein G-agarose; 12% SDS-PAGE and immunoblotting
[2] = molecular target: integrin β1 (human (endogenous in 686LN and its derivative M4 cells)) (UniProt P05556); assay: co-IP; parental 686LN cells; data not shown

Substance | binding [1] | binding [2]
Caveolin-1 (human cav-1 cDNA expressed from lentivirus in M4 cells, CavS) (from UniProt Q03135 1-178) | binds | 
Caveolin-1 (endogenous in parental 686LN cells) (from UniProt Q03135 1-178) |  | binds
